Source: patent US20150051171A1, “TETRAZOLINONE COMPOUNDS AND ITS USE AS PESTICIDES” (SUMITOMO CHEMICAL COMPANY, LIMITED, priority 2012, published 2015)
Some results were stated once for a whole list of compounds, not compound by compound.

Tests used:
[1] = system: rice blast fungi (Magnaporthe grisea); type: in vivo; details: 200 ppm foliar spray, rice (cv; Nipponbare), 6 days in contact with infected seedlings
[2] = system: wheat rust fungi (Puccinia recondita); assay: Wheat rust control on wheat, foliar spray before inoculation (Test Examples 4-6); type: in vivo; details: wheat (cv; Shirogane), inoculated 5 days after spraying
[3] = system: cucumber anthracnose fungi (Colletotrichum lagenarium); assay: Cucumber anthracnose control, foliar spray before inoculation (Test Examples 29-30); type: in vivo; details: 50 ppm foliar spray, cucumber (cv; Sagamihanjiro), inoculated 1 day after spraying
[4] = system: soybean rust fungi (phakopsora pachyrhizi); assay: Soybean rust control, foliar spray before inoculation (Test Example 20); type: in vivo; details: 200 ppm foliar spray, soybean (cv: Kurosengoku), inoculated 2 days after spraying
[5] = system: grapes downy mildew fungi; assay: Grapes downy mildew control, foliar spray before inoculation (Test Example 24); details: 200 ppm foliar spray, grapes (Seeding of Chardonnay), inoculated after drying
[6] = system: cucumber target spot fungi (Corynespora cassiicola); assay: Cucumber target spot control, foliar spray before inoculation (Test Examples 27-28); type: in vivo; details: 50 ppm foliar spray, cucumber (cv; Sagamihanjiro), inoculated 1 day after spraying

Row | SMILES | lesion area compared to the lesion area in untreated plants [1] [%] | other results
1 | COc1ccc(-n2ccc(OCc3c(C)cccc3-n3nnn(C)c3=O)n2)cc1F [Present compound 20, 1-(2-{[1-(4-methoxy-3-fluorophenyl)-1H-pyrazole-3-yl]oxymethyl}-3-methylphenyl)-4-methyl-1,4-dihydrotetrazole-5-one] | ≤ 30 | –
2 | Cc1c(F)ccc(-n2nnn(C)c2=O)c1COc1ccn(-c2ccc(Cl)cc2)n1 [Present compound 84, 1-(2-{[1-(4-chlorophenyl)-1H-pyrazole-3-yl]oxymethyl}-3-methyl-4-fluorophenyl)-4-methyl-1,4-dihydrotetrazole-5-one] | ≤ 30 | lesion area compared to the lesion area in untreated plants ([2]; 200 ppm foliar spray): ≤ 30%
3 | COc1cccc(-n2nnn(C)c2=O)c1COc1ccn(-c2ccc(Cl)cc2)n1 [Present compound 26, 1-(2-{[1-(4-chlorophenyl)-1H-pyrazole-3-yl]oxymethyl}-3-methoxyphenyl)-4-methyl-1,4-dihydrotetrazole-5-one] | ≤ 30 | –
4 | CCOc1cccc(-n2nnn(C)c2=O)c1COc1ccn(-c2ccc(Cl)cc2)n1 [Present compound 66, 1-(2-{[1-(4-chlorophenyl)-1H-pyrazole-3-yl]oxymethyl}-3-ethoxyphenyl)-4-methyl-1,4-dihydrotetrazole-5-one] | ≤ 30 | –
5 | Cc1ccc(-n2ccc(OCc3c(C)cccc3-n3nnn(C)c3=O)n2)c(F)c1 [Present compound 23, 1-(2-{[1-(4-methyl-2-fluorophenyl)-1H-pyrazole-3-yl]oxymethyl}-3-methylphenyl)-4-methyl-1,4-dihydrotetrazole-5-one] | ≤ 30 | –
6 | COc1ccc(-n2ccc(OCc3c(C)cccc3-n3nnn(C)c3=O)n2)cc1 [Present compound 14, 1-(2-{[1-(4-methoxyphenyl)-1H-pyrazole-3-yl]oxymethyl}-3-methylphenyl)-4-methyl-1,4-dihydrotetrazole-5-one] | ≤ 30 | –
7 | Cn1nnn(-c2cccc(Br)c2COc2ccn(-c3ccc(Cl)cc3)n2)c1=O [Present compound 7, 1-(2-{[1-(4-chlorophenyl)-1H-pyrazole-3-yl]oxymethyl}-3-bromophenyl)-4-methyl-1,4-dihydrotetrazole-5-one] | ≤ 30 | –
8 | COc1cccc(-n2ccc(OCc3c(C)cccc3-n3nnn(C)c3=O)n2)c1 [Present compound 83, 1-(2-{[1-(3-methoxyphenyl)-1H-pyrazole-3-yl]oxymethyl}-3-methylphenyl)-4-methyl-1,4-dihydrotetrazole-5-one] | ≤ 30 | –
9 | Cn1nnn(-c2cccc(C3CC3)c2COc2ccn(-c3ccc(Cl)cc3)n2)c1=O [Present compound 34, 1-(2-{[1-(4-chlorophenyl)-1H-pyrazole-3-yl]oxymethyl}-3-cyclopropylphenyl)-4-methyl-1,4-dihydrotetrazole-5-one] | ≤ 30 | lesion area compared to the lesion area in untreated plants ([2]; 200 ppm foliar spray): ≤ 30%
10 | Cc1ccc(F)c(-n2nnn(C)c2=O)c1COc1ccn(-c2ccc(Cl)cc2)n1 [Present compound 85] | – | lesion area compared to the lesion area in untreated plants [3]: ≤ 30%
11 | Cn1nnn(-c2cccc(F)c2COc2ccn(-c3ccc(Cl)cc3)n2)c1=O [Present compound 1, 1-(2-{[1-(4-chlorophenyl)-1H-pyrazole-3-yl]oxymethyl}-3-fluorophenyl)-4-methyl-1,4-dihydrotetrazole-5-one] | ≤ 30 | lesion area compared to the lesion area in untreated plants ([2]; 200 ppm foliar spray): ≤ 30%
12 | COc1ccccc1-n1ccc(OCc2c(OC)cccc2-n2nnn(C)c2=O)n1 [Present compound 87, 1-(2-{[1-(2-methoxyphenyl)-1H-pyrazole-3-yl]oxymethyl}-3-methoxyphenyl)-4-methyl-1,4-dihydrotetrazole-5-one] | ≤ 30 | –
13 | Cc1cccc(-n2nnn(C)c2=S)c1COc1ccn(-c2ccc(Cl)cc2)n1 [Present compound 24, 1-(2-{[1-(4-chlorophenyl)-1H-pyrazole-3-yl]oxymethyl}-3-methylphenyl)-4-methyl-1,4-dihydrotetrazole-5-thione] | ≤ 30 | –
14 | Cn1nnn(-c2cccc(C3CC3)c2COc2ccn(-c3ccc(Br)cc3)n2)c1=O [Present compound 56, 1-(2-{[1-(4-bromophenyl)-1H-pyrazole-3-yl]oxymethyl}-3-cyclopropylphenyl)-4-methyl-1,4-dihydrotetrazole-5-one] | ≤ 30 | lesion area compared to the lesion area in untreated plants ([2]; 500 ppm foliar spray): ≤ 30%
15 | Cc1cccc(-n2nnn(C)c2=O)c1COc1ccn(-c2cccc(Br)c2)n1 [Present compound 82, 1-(2-{[1-(3-bromo-phenyl)-1H-pyrazole-3-yl]oxymethyl}-3-methylphenyl)-4-methyl-1,4-dihydrotetrazole-5-one] | – | lesion area compared to the lesion area in untreated plants ([2]; 200 ppm foliar spray): ≤ 30%
16 | Cc1cccc(-n2nnn(C)c2=O)c1COc1ccn(-c2ccc(Cl)c(F)c2)n1 [Present compound 53] | ≤ 30 | lesion area compared to the lesion area in untreated plants ([2]; 200 ppm foliar spray): ≤ 30%
17 | COc1ccccc1-n1ccc(OCc2c(C)cccc2-n2nnn(C)c2=O)n1 [Present compound 78, 1-(2-{[1-(2-methoxyphenyl)-1H-pyrazole-3-yl]oxymethyl}-3-methylphenyl)-4-methyl-1,4-dihydrotetrazole-5-one] | – | lesion area compared to the lesion area in untreated plants ([2]; 500 ppm foliar spray): ≤ 30%
18 | COc1c(Cl)cccc1-n1ccc(OCc2c(C)cccc2-n2nnn(C)c2=O)n1 [Present compound 97, 1-(2-{[1-(3-chloro-2-methoxyphenyl)-1H-pyrazole-3-yl]oxymethyl}-3-methylphenyl)-4-methyl-1,4-dihydrotetrazole-5-one] | ≤ 30 | –
19 | Cn1nnn(-c2cccc([N+](=O)[O-])c2COc2ccn(-c3ccc(Cl)cc3)n2)c1=O [Present compound 30, 1-(2-{[1-(4-chlorophenyl)-1H-pyrazole-3-yl]oxymethyl}-3-nitrophenyl)-4-methyl-1,4-dihydrotetrazole-5-one] | ≤ 30 | –
20 | CCc1cccc(-n2nnn(C)c2=O)c1COc1ccn(-c2ccc(Cl)cc2)n1 [Present compound 33, 1-(2-{[1-(4-chlorophenyl)-1H-pyrazole-3-yl]oxymethyl}-3-ethylphenyl)-4-methyl-1,4-dihydrotetrazole-5-one] | ≤ 30 | –
21 | Cc1ccc(C)c(-n2nnn(C)c2=O)c1COc1ccn(-c2ccc(Cl)cc2)n1 [Present compound 73] | ≤ 30 | –
22 | Cc1cccc(-n2nnn(C)c2=O)c1COc1ccn(-c2ccc(Cl)cc2)n1 [Present compound 12, 1-(2-{[1-(4-chlorophenyl)-1H-pyrazole-3-yl]oxymethyl}-3-methylphenyl)-4-methyl-1,4-dihydrotetrazole-5-one] | ≤ 30 | lesion area compared to the lesion area in untreated plants [3]: ≤ 30%; lesion area compared to the lesion area in untreated plants [4]: ≤ 30%; lesion area compared to the lesion area in untreated plants ([2]; 500 ppm foliar spray): ≤ 30%; lesion area compared to the lesion area in untreated plants [5]: ≤ 30%; lesion area compared to the lesion area in untreated plants [6]: ≤ 30%
